Laboratory results from publication PMC11176650.
No constants are given. Whether binding was seen depends on the method and setting. Binding seen in cells or lysates may run through a third protein. Some entries that bind do so weakly or less than the wild type.

Chains of the proteins cited; added tags and fusions are not shown. Residues count along the entry.
UniProt P08581, residues 25-1390: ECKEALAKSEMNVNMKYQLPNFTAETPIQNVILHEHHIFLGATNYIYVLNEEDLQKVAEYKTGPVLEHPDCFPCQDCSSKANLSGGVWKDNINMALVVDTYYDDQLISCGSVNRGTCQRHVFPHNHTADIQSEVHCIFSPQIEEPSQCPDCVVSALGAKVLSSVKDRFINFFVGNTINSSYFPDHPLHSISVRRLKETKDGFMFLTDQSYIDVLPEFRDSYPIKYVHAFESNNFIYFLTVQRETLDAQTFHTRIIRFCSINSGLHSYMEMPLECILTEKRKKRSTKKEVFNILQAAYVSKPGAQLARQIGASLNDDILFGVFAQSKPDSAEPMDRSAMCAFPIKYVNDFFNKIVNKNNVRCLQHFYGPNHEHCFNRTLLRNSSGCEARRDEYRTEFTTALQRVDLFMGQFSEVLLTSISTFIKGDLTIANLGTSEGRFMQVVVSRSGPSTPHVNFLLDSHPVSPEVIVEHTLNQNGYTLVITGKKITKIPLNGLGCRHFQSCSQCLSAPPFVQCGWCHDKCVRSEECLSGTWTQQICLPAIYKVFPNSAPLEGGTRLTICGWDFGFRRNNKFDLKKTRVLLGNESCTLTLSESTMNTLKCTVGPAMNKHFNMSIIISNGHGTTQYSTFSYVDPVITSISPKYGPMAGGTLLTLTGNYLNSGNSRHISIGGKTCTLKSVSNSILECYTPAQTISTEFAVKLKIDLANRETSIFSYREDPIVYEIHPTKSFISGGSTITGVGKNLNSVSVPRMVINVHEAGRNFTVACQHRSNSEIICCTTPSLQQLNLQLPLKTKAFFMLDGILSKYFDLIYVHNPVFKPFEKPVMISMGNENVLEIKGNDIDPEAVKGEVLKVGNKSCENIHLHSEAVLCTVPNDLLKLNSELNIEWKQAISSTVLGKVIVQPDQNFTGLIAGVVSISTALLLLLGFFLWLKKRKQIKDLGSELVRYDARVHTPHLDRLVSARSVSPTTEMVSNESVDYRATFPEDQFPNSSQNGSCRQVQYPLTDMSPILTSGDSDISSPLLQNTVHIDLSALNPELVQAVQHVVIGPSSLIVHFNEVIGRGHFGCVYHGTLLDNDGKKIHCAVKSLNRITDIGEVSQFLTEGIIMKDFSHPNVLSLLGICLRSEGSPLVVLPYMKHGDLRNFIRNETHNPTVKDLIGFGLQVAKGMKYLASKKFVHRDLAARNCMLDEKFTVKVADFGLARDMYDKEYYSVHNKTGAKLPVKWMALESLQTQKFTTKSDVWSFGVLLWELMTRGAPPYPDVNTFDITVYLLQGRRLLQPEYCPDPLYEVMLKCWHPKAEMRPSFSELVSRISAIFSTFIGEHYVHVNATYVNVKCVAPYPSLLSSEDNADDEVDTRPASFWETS

Biological target: MET (UniProt P08581)
Experiment: co-IP; cells, precipitated protein and conditions not stated in the text shown

binding: binds
B1: myelin protein zero-like protein 1 (MPZL1) (protein, UniProt O95297 36-269)
chain: SALEVYTPKEIFVANGTQGKLTCKFKSTSTTGGLTSVSWSFQPEGADTTVSFFHYSQGQVYLGNYPPFKDRISWAGDLDKKDASINIENMQFIHNGTYICDVKNPPDIVVQPGHIRLYVVEKENLPVFPVWVVVGIVTAVVLGLTLLISMILAVLYRRKNSKRDYTGCSTSESLSPVKQAPRKSPSDTEGLVKSLPSGSHQGPVIYAQLDHSGGHHSDKINKSESVVYADIRKN
